Data published in paper doi:10.1101/2025.05.02.25326757.
Like-named read-outs stand apart in the source and are kept apart here. Results are given in words; binding and its absence hold for the method and conditions named. In cells and extracts the contact can be indirect. Here binding means that the protein was enriched with, or labelled near, the bait; the list need not be complete. For some of these results: No binding means not detected with the bait.

Amino acid sequences for entries named in this document (tags omitted). Residues count along the entry.
UniProt P42263, residues 29-894: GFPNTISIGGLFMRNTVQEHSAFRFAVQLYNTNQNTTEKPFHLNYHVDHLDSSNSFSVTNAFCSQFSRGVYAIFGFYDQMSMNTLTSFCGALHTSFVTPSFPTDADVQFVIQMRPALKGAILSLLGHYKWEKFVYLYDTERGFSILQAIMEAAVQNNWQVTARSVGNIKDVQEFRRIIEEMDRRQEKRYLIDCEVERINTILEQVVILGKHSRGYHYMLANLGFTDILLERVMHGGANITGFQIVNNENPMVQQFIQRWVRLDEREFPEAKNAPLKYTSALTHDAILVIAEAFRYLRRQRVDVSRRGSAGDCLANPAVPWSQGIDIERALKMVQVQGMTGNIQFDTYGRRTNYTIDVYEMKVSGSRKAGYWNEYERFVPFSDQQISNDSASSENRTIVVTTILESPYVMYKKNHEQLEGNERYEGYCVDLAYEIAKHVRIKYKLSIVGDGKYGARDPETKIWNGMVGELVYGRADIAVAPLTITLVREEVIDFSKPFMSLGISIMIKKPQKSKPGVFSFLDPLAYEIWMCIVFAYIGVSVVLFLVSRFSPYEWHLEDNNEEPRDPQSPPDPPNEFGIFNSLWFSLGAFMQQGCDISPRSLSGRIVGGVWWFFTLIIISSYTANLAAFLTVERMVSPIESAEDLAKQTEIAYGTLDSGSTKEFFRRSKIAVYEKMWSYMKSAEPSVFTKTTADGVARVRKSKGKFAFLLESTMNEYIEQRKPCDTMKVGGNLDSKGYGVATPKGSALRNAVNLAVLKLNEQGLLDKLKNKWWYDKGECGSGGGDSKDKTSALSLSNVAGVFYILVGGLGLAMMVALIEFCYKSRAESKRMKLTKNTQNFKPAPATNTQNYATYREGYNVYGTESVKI
UniProt Q86UL8: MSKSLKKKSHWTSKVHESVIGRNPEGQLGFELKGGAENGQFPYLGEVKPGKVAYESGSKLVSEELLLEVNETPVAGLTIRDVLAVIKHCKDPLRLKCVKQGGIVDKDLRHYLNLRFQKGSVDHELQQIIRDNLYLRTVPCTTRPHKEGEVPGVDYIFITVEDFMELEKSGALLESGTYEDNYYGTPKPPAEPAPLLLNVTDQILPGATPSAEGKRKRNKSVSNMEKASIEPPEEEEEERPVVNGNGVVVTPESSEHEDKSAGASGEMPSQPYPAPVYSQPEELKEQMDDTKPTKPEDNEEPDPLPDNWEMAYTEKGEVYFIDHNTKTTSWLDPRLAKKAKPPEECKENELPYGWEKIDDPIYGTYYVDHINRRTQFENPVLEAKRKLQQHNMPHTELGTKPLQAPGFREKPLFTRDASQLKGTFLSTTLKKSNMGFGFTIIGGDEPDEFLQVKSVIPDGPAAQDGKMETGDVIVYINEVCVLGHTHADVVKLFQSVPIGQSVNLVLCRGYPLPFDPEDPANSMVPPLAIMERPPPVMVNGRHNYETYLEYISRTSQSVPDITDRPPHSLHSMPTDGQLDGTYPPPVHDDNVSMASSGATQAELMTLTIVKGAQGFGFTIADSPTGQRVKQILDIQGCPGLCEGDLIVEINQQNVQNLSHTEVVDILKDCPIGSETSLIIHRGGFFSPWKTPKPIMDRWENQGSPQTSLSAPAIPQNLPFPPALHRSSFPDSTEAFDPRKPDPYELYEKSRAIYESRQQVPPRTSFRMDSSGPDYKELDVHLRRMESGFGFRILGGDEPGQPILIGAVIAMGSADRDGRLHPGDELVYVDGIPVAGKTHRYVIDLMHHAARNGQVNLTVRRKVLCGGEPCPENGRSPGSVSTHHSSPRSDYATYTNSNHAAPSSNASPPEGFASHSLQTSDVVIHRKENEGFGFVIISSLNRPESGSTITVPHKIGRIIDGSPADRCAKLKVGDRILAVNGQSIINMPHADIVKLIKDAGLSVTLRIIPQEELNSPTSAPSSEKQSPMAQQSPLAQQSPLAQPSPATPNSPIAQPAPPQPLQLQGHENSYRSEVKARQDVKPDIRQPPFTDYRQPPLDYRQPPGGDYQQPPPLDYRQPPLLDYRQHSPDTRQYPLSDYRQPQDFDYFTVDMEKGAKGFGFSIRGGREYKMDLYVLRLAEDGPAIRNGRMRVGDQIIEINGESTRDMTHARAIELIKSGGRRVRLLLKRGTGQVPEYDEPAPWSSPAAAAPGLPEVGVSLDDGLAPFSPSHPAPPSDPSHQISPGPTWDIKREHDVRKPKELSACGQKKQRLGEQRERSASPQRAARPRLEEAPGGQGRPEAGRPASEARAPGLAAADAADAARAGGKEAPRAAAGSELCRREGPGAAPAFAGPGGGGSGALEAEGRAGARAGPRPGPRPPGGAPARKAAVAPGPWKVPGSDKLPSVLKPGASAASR
UniProt Q9UQ35: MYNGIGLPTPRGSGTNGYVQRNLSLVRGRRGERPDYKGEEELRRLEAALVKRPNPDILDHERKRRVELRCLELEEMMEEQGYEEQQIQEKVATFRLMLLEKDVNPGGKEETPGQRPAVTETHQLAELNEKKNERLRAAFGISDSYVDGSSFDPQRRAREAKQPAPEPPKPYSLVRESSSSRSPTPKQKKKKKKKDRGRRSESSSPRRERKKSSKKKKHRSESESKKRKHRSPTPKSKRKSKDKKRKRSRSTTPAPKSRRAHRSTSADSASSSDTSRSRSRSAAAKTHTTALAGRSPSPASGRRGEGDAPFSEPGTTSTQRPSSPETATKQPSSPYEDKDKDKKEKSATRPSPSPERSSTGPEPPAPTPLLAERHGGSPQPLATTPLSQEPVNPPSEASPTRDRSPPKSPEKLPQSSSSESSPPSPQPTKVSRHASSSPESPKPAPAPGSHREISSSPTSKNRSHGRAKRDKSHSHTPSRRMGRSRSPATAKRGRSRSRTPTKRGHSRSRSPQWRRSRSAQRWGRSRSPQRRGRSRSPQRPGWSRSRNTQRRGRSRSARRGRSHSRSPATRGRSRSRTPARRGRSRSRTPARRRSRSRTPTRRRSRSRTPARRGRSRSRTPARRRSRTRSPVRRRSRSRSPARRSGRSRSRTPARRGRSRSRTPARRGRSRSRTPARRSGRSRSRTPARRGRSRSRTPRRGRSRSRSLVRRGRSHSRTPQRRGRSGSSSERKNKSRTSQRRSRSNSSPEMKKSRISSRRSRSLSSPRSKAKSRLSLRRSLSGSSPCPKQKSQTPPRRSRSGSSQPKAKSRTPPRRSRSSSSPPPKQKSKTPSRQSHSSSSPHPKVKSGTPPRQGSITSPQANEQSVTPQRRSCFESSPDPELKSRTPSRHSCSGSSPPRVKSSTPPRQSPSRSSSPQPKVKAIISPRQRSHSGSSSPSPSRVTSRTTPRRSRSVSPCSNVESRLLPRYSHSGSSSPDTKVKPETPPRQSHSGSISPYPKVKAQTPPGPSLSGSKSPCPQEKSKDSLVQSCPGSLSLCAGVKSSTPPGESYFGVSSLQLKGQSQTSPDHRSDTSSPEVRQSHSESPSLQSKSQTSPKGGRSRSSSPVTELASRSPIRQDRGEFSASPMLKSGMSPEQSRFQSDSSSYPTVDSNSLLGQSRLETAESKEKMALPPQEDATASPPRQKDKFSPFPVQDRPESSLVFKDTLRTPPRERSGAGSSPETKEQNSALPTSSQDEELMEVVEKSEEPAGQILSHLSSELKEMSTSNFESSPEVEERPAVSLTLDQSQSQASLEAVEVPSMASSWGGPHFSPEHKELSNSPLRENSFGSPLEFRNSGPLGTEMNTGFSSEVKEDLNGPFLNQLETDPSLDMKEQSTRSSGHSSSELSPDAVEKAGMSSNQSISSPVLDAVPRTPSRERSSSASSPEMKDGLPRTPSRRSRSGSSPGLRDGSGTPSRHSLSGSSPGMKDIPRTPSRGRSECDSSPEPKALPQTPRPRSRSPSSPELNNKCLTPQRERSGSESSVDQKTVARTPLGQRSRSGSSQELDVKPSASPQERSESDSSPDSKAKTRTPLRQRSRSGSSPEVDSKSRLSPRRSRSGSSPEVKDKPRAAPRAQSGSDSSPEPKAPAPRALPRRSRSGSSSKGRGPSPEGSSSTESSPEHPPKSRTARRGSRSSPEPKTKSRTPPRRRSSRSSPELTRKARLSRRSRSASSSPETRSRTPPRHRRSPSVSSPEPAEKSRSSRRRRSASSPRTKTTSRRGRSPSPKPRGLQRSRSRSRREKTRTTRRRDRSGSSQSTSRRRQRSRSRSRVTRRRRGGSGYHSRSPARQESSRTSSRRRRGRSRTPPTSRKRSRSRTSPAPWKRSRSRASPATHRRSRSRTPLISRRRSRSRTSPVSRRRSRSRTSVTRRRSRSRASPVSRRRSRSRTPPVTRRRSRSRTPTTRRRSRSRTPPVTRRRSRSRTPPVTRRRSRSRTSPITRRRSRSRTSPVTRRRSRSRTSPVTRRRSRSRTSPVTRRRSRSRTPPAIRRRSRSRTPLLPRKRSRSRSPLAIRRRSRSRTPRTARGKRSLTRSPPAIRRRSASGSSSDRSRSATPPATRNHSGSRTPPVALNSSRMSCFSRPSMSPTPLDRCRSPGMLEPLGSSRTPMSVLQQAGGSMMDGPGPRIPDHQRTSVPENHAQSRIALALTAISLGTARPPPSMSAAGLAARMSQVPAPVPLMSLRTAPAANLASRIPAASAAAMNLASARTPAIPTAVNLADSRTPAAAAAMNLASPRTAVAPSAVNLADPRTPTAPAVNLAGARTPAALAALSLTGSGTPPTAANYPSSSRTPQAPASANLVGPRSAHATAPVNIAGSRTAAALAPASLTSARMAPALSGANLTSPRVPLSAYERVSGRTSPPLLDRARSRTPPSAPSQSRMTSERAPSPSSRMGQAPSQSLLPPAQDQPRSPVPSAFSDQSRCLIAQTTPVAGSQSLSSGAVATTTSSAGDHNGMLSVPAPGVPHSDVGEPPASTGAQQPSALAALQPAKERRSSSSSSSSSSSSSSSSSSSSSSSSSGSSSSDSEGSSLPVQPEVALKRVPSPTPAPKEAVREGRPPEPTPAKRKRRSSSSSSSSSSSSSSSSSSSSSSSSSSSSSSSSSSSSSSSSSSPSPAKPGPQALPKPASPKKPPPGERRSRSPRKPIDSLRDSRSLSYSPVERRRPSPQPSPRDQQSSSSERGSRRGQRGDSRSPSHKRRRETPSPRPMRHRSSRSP
UniProt P49840: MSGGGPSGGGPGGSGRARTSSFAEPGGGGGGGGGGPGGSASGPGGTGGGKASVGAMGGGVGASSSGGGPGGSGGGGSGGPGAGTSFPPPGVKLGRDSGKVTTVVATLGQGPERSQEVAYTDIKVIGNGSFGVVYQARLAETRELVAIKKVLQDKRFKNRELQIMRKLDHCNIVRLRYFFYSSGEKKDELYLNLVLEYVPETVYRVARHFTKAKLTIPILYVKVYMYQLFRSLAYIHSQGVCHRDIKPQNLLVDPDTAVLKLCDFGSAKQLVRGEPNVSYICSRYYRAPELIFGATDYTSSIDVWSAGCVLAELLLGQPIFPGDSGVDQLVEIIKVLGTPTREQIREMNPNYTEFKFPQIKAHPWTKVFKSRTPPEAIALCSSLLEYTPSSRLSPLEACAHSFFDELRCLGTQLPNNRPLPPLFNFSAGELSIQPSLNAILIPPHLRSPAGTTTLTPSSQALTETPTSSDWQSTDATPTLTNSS
UniProt P49841: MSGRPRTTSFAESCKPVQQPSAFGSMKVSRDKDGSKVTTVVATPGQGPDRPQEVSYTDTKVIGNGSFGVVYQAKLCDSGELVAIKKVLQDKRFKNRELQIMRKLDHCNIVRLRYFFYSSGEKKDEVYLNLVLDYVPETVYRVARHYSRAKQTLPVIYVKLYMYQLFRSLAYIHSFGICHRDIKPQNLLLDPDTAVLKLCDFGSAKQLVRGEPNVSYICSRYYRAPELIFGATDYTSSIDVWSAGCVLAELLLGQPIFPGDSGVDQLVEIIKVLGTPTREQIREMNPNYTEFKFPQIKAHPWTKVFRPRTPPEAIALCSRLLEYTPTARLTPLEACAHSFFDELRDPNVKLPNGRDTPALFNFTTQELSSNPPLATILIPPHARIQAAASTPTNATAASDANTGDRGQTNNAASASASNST

Columns and labels:
Test in all cases: affinity purification with mass spectrometry
[1] = molecular target: CUL1 (human (endogenous in human stem cell-derived neuronal cells and human cortex)) (UniProt Q13616)
[2] = molecular target: GRIA3 (human (endogenous in human stem cell-derived neuronal cells and human cortex)) (UniProt P42263)
[3] = molecular target: T1, HCN4 (human (endogenous in human stem cell-derived neuronal cells and human cortex)) (UniProt Q9Y3Q4)
T1 sequence: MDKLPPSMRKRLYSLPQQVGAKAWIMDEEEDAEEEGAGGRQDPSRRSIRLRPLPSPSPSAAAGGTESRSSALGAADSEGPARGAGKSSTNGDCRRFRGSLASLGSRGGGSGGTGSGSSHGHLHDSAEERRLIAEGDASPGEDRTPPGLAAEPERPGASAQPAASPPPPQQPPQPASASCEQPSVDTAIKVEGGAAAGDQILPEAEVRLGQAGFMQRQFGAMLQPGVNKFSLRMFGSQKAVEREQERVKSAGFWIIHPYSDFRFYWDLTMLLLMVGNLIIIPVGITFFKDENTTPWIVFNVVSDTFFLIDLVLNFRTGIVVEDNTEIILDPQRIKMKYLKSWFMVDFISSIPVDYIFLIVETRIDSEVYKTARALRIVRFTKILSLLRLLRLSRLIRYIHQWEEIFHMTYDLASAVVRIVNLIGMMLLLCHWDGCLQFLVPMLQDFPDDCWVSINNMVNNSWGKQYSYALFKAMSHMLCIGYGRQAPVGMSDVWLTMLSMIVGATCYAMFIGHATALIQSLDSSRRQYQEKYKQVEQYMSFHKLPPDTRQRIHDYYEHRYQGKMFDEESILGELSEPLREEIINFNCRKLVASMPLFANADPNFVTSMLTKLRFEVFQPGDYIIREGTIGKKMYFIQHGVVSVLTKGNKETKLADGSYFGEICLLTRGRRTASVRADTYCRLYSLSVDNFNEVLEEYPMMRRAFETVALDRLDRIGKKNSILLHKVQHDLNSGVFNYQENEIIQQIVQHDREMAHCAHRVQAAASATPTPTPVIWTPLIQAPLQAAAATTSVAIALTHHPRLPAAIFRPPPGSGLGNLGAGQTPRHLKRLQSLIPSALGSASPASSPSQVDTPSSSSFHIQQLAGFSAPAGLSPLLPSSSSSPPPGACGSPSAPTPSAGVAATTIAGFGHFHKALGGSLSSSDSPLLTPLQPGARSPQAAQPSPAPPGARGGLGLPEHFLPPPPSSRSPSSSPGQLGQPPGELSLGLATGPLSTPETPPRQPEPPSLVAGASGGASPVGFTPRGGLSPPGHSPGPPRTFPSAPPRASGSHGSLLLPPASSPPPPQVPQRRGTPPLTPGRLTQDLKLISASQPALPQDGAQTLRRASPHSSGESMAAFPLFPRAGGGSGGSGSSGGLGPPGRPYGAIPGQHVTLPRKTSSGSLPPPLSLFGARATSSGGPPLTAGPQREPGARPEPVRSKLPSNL

[4] = molecular target: HERC1 (human (endogenous in human stem cell-derived neuronal cells and human cortex)) (UniProt Q15751)
[5] = molecular target: MAGI2 (human (endogenous in human stem cell-derived neuronal cells and human cortex)) (UniProt Q86UL8)
[6] = molecular target: RB1CC1 (human (endogenous in human stem cell-derived neuronal cells and human cortex)) (UniProt Q8TDY2)
[7] = molecular target: SETD1A (human (endogenous in human stem cell-derived neuronal cells and human cortex)) (UniProt O15047)
[8] = molecular target: SP4 (human (endogenous in human stem cell-derived neuronal cells and human cortex)) (UniProt Q02446)
[9] = molecular target: SRRM2 (human (endogenous in human stem cell-derived neuronal cells and human cortex)) (UniProt Q9UQ35)
[10] = molecular target: TRIO (human (endogenous in human stem cell-derived neuronal cells and human cortex)) (UniProt O75962)
[11] = molecular target: T2, XPO7 (human (endogenous in human stem cell-derived neuronal cells and human cortex)) (UniProt Q9UIA9)
T2 sequence: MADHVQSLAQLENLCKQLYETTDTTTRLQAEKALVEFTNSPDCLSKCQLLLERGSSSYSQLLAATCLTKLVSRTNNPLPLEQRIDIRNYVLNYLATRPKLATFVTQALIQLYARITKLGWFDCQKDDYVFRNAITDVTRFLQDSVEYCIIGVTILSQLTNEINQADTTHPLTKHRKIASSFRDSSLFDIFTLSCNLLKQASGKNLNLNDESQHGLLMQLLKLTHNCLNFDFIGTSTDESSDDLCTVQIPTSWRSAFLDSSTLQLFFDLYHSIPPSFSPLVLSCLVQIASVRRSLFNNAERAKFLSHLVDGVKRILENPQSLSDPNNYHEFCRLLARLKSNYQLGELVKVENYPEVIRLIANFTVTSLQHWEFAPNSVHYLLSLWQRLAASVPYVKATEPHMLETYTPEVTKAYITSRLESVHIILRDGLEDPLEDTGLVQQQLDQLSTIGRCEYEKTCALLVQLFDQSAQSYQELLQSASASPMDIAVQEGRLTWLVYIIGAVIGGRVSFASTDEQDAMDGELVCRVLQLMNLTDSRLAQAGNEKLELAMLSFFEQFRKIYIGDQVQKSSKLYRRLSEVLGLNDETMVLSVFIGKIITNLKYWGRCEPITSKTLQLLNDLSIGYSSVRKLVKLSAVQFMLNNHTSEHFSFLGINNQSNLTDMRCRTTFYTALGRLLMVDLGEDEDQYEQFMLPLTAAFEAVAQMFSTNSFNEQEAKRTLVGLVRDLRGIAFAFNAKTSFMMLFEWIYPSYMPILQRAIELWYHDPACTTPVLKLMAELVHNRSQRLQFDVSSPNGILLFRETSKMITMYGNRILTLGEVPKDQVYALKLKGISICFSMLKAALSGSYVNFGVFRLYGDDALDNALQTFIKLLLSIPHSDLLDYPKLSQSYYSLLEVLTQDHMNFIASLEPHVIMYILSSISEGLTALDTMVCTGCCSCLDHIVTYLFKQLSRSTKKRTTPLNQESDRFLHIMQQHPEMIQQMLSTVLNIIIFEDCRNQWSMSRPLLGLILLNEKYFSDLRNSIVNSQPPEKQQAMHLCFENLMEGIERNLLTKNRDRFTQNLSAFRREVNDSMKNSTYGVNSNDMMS

[12] = molecular target: T3, ZMYM2 (human (endogenous in human stem cell-derived neuronal cells and human cortex)) (UniProt Q9UBW7)
T3 sequence: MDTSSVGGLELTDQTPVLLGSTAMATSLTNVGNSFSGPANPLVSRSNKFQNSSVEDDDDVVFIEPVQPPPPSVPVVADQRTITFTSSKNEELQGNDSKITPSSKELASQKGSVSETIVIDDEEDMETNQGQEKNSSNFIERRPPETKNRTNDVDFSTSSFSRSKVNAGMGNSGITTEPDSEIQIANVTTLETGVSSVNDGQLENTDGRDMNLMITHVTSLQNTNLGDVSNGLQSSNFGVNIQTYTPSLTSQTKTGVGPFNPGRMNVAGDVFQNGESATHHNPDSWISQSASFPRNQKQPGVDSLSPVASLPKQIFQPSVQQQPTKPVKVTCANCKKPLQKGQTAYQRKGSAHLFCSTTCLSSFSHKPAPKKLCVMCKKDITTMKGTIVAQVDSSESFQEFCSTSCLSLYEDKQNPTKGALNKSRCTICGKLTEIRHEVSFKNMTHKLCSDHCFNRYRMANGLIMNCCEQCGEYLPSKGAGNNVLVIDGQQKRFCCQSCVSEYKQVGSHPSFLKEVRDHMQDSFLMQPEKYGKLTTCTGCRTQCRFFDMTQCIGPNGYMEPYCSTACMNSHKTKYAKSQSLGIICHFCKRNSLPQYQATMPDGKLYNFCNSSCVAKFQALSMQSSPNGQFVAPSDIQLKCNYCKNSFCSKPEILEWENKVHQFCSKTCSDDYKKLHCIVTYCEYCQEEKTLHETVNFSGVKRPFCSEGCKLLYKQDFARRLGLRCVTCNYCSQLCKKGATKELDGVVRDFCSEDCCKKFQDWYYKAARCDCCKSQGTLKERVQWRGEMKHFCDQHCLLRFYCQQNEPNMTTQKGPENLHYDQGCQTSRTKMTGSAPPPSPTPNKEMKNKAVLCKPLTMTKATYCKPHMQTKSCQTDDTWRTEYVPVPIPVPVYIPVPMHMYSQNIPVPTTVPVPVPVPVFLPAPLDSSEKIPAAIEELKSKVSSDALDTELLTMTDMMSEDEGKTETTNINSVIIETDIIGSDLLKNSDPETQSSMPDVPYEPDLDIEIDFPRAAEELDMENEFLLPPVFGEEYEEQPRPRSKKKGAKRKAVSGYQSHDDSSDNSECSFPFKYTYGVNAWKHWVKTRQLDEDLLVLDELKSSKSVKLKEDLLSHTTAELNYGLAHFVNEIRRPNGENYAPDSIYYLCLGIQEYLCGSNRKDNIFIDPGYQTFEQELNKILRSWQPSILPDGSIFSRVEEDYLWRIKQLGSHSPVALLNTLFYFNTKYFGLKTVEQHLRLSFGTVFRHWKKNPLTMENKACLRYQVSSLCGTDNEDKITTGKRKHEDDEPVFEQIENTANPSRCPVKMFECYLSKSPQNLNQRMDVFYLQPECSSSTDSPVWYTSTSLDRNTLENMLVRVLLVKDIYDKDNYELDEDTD

[13] = molecular target: SRRM2 (human (endogenous in human stem cell-derived neuronal cells and human cortex)) (UniProt Q9UQ35); remark: listed apart in the source
[14] = molecular target: TRIO (human (endogenous in human stem cell-derived neuronal cells and human cortex)) (UniProt O75962); remark: listed apart in the source

binding [1] | binding [2] | binding [3] | binding [4] | binding [5] | binding [6] | binding [7] | binding [8] | binding [9] | binding [10] | binding [11] | binding [12] | binding [13] | binding [14] | Substance
no binding | no binding | no binding | no binding | no binding | no binding | no binding | no binding | no binding | no binding | no binding | no binding |  |  | GSK3A (from UniProt P49840 1-483) (enzyme)
 |  |  |  |  |  |  |  | binds | binds |  |  | binds | binds | Glycogen Synthase Kinase-3 Beta (from UniProt P49841 1-420) (enzyme)
